Results on 2 molecules are retold here after article PMC12210952.

By UniProt entry, the sequences of proteins in these tests, tags left out.
UniProt P13164: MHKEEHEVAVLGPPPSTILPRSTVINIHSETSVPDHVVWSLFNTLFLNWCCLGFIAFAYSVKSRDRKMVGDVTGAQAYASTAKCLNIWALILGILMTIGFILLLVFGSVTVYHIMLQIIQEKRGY

Results are given in words; binding and its absence hold for the method and conditions named. Binding seen in cells or lysates may run through a third protein. Some results given as binding are weak or reduced against the parent protein; the word gives no strength. For some assays here: Where a sequence is shown, tags or fusion partners need not be part of it.

The target in one assay is IFITM1-YN (human) (UniProt P13164). Kind of assay: split reporter; BiFC in living HepG2.215 cells transiently transfected with IFITM1-YN + ABHD16A-YC (control YN+YC), 24 hours, YFP signal by confocal microscope.
In another assay the target is Flag-IFITM1 (human) (UniProt P13164). The experiment in a line: co-IP; HepG2.215 cells cotransfected for 24 hours; lysate (20 mM Tris 7.5, 150 mM NaCl, 1% Triton X-100, 1% sodium deoxycholate, 0.1% SDS) immunoprecipitated with Flag antibody on Protein A + G magnetic beads, 4°C, 12 hours; blots with Flag and GFP antibodies.

B1: ABHD16A-YC (enzyme, UniProt O95870 1-558)
chain: MAKLLSCVLGPRLYKIYRERDSERAPASVPETPTAVTAPHSSSWDTYYQPRALEKHADSILALASVFWSISYYSSPFAFFYLYRKGYLSLSKVVPFSHYAGTLLLLLAGVACLRGIGRWTNPQYRQFITILEATHRNQSSENKRQLANYNFDFRSWPVDFHWEEPSSRKESRGGPSRRGVALLRPEPLHRGTADTLLNRVKKLPCQITSYLVAHTLGRRMLYPGSVYLLQKALMPVLLQGQARLVEECNGRRAKLLACDGNEIDTMFVDRRGTAEPQGQKLVICCEGNAGFYEVGCVSTPLEAGYSVLGWNHPGFAGSTGVPFPQNEANAMDVVVQFAIHRLGFQPQDIIIYAWSIGGFTATWAAMSYPDVSAMILDASFDDLVPLALKVMPDSWRGLVTRTVRQHLNLNNAEQLCRYQGPVLLIRRTKDEIITTTVPEDIMSNRGNDLLLKLLQHRYPRVMAEEGLRVVRQWLEASSQLEEASIYSRWEVEEDWCLSVLRSYQAEHGPDFPWSVGEDMSADGRRQLALFLARKHLHNFEATHCTPLPAQNFQMPWHL
B1: the binding result with IFITM1-YN (human) is recorded as “binds”.

B2: ABHD16A-EGFP (enzyme, UniProt O95870 1-558)
chain: B1 chain
For B2, in the assay with Flag-IFITM1 (human), the binding entry is on record as “binds”.
